Data published in the supplement of paper PMC7752906.
Where a name gives a salt, the structure may show the parent alone. The list shows a part of the results. Repeats in this data set agree poorly, so a single value says little.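 About 40 Schistosoma mansoni schistosomula per well were imaged over time in bright field and compared with 0.1% DMSO wells. A drug counts as a hit if its Mahalanobis distance reaches 2.47 or more, three standard deviations above the DMSO control mean. Degeneracy is the fraction of worms scored opaque.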

tested on: Schistosoma mansoni schistosomula; assay: Mahalanobis distance of static-rate-frequency phenotype descriptors from DMSO controls (dimensionless); higher = stronger phenotypic change versus DMSO; conditions: 10 µM; 72 h

| SMILES | Mahalanobis distance |
| --- | --- |
| CN1CCCN=C1COC(=O)C(O)(c1ccccc1)C1CCCCC1 (configuration not stated) [Oxyphencyclimine Hydrochloride] | inactive: 2.17 |
| CC(C)(Oc1ccc(Cl)cc1)C(=O)O [Clofibric Acid] | inactive: 1.43 |
| CC(=O)N[C@@H](CCC(N)=O)C(=O)O [Aceglutamide] | inactive: 1.86 |
| CC1CCc2c(N3CCC(O)CC3)c(F)cc3c(=O)c(C(=O)O)cn1c23 (configuration not stated) [Nadifloxacin] | inactive: 1.38 |
| Cc1ccc(-c2ncc(Cl)cc2-c2ccc(S(C)(=O)=O)cc2)cn1 [Etoricoxib] | active: 2.7 |
| CO[C@H]1O[C@@H]2O[C@@]3(C)CC[C@H]4[C@H](C)CC[C@@H]([C@H]1C)[C@@]24OO3 [Artemether] | inactive: 1.31 |
| NC12CC3CC(CC(C3)C1)C2 [Amantadine] | active: 2.84 |
| Cc1cc(=O)n(-c2ccccc2)n1C [Antipyrine] | inactive: 1.96 |
| Nc1ncnc(Nc2ccc(Cl)cc2)n1 [Chlorazanil Hydrochloride] | inactive: 1.86 |
| CCOC(=O)C(C)(C)Oc1ccc(Cl)cc1 [Clofibrate] | inactive: 2.39 |
| C[C@@H]1[C@H](O)[C@@H](C)/C=C/C=C/C=C/C=C/C=C/C=C/C=C/[C@H](O[C@@H]2O[C@H](C)[C@@H](O)[C@H](N)[C@@H]2O)C[C@@H]2O[C@](O)(C[C@@H](O)C[C@@H](O)[C@H](O)CC[C@@H](O)C[C@@H](O)CC(=O)O[C@H]1C)C[C@H](O)[C@H]2C(=O)O [Amphotericin B] | active: 4.71 |
| C[C@]12CC[C@@H]3c4ccc(O)cc4CC[C@H]3[C@@H]1CC[C@@H]2OC(=O)CCC1CCCC1 [Estradiol Cypionate] | active: 2.61 |
| CN1CCc2cccc3c2[C@H]1Cc1ccc(O)c(O)c1-3 [Apomorphine Hydrochloride] | inactive: 2.3 |
| CN1CCc2cccc3c2[C@H]1Cc1ccc(O)c(O)c1-3 [R(-)-apomorphine] | inactive: 2.29 |
| CCC(NC(C)C)C(O)c1ccc(O)c(O)c1 (configuration not stated) [Isoetharine Mesylate] | inactive: 1.72 |
| CCC(Cc1c(I)cc(I)c(N)c1I)C(=O)O (configuration not stated) [Iopanic Acid] | inactive: 2.13 |
| CN1CC(=O)NC1=N [Creatinine] | inactive: 2.02 |
| CCN[C@H]1C[C@H](C)S(=O)(=O)c2sc(S(N)(=O)=O)cc21 [Dorzolamide??hcl] | inactive: 1.44 |
| CC(=O)N(O)CCCCCNC(=O)CCC(=O)N(O)CCCCCNC(=O)CCC(=O)N(O)CCCCCN [Deferoxamine] | inactive: 1.86 |
| CO/N=C1\C[C@]2(C[C@@H]3C[C@@H](C/C=C(\C)C[C@@H](C)/C=C/C=C4\CO[C@@H]5[C@H](O)C(C)=C[C@@H](C(=O)O3)[C@]45O)O2)O[C@H](/C(C)=C/C(C)C)[C@H]1C [moxidectin] | inactive: 2.31 |
| CCCCN1CCCCC1C(=O)Nc1c(C)cccc1C (configuration not stated) [Bupivacaine Hydrochloride] | inactive: 1.86 |

| SMILES | Mahalanobis distance |
| --- | --- |
| CCOC(=O)NNc1nncc2ccccc12 [Todralazine Hydrochloride] | active: 2.64 |
| CC(C)(C)c1ccc(C(O)CCCN2CCC(C(O)(c3ccccc3)c3ccccc3)CC2)cc1 (configuration not stated) [terfenadine] | inactive: 1.94 |
| COc1ccc(CC2c3cc(OC)c(OC)cc3CC[N+]2(C)CCC(=O)OCCCCCOC(=O)CC[N+]2(C)CCc3cc(OC)c(OC)cc3C2Cc2ccc(OC)c(OC)c2)cc1OC (configuration not stated) [Atracurium Besylate] | inactive: 1.75 |
| Cc1nc(Nc2ncc(C(=O)Nc3c(C)cccc3Cl)s2)cc(N2CCN(CCO)CC2)n1 [Dasatinib] | active: 2.67 |
| CCN(CCO)CCCC(C)Nc1ccnc2cc(Cl)ccc12 (configuration not stated) [Hydroxychloroquine Sulfate] | active: 2.52 |
| COc1cc([C@@H]2c3cc4c(cc3[C@@H](O[C@@H]3O[C@@H]5CO[C@@H](c6cccs6)O[C@H]5[C@H](O)[C@H]3O)[C@H]3COC(=O)[C@H]23)OCO4)cc(OC)c1O [Teniposide] | inactive: 2.19 |
| O=c1[nH]cnc2c1ncn2[C@@H]1O[C@H](CO)[C@@H](O)[C@H]1O [Inosine] | inactive: 1.27 |
| CCOc1ccccc1OC(c1ccccc1)C1CNCCO1 (configuration not stated) [Reboxetine Mesylate] | active: 2.84 |
| O=c1ccc2ccccc2o1 [Coumarin] | inactive: 1.97 |
| O=c1[nH]c(=O)c2ccccc2o1 [Carsalam] | inactive: 1.97 |
| Nc1ccn([C@@H]2O[C@H](CO)[C@@H](O)[C@@H]2O)c(=O)n1 [Cytarabine] | inactive: 2.06 |
| Nc1ccc(S(=O)(=O)Nc2ccccn2)cc1 [Sulfapyridine] | inactive: 1.93 |
| CO[C@H]1C[C@H](O[C@H]2[C@H](C)[C@@H](O[C@@H]3O[C@H](C)C[C@H](N(C)C)[C@H]3O)[C@@H](C)C[C@@]3(CO3)C(=O)[C@H](C)[C@@H](O)[C@@H](C)[C@@H](C)OC(=O)[C@@H]2C)O[C@@H](C)[C@@H]1O [Oleandomycin Phosphate] | inactive: 2.04 |
| CCN(CC)CCOC(=O)C(c1ccccc1)c1ccccc1 [Adiphenine Hydrochloride] | active: 3.03 |
| OC(CCCN1CCCCC1)(c1ccccc1)c1ccccc1 [Diphenidol] | active: 2.52 |
| CCOC(=O)c1ccc(N)cc1 [Benzocaine] | inactive: 1.48 |
| CC(C)(C)CC(C)(C)c1ccc(O)c(Cc2ccc(Cl)cc2Cl)c1 [clofoctol] | inactive: 1.82 |
| Cc1ccc(S(=O)(=O)NC(=O)NN2CCCCCC2)cc1 [Tolazamide] | inactive: 1.77 |
| C[C@]12CC[C@@H]3c4ccc(OS(=O)(=O)O)cc4CC[C@H]3[C@@H]1CCC2=O [Estropipate] | inactive: 1.62 |
| C[N+](C)(C)CCOC(=O)CCC(=O)OCC[N+](C)(C)C [Succinylcholine Chloride] | inactive: 1.63 |
| CN(C)c1ccc(O)c2c1C[C@H]1C[C@H]3[C@H](N(C)C)C(O)=C(C(N)=O)C(=O)[C@@]3(O)C(O)=C1C2=O [Minocycline Hydrochloride] | inactive: 1.92 |

Part of the list above, tab-delimited.
SMILES	Mahalanobis distance
COc1cc([C@@H]2c3cc4c(cc3[C@@H](O[C@@H]3O[C@@H]5CO[C@@H](c6cccs6)O[C@H]5[C@H](O)[C@H]3O)[C@H]3COC(=O)[C@H]23)OCO4)cc(OC)c1O [Teniposide]	inactive: 2.19
O=c1ccc2ccccc2o1 [Coumarin]	inactive: 1.97
